# Measured values as given in PubChem BioAssay AID298 (DTP/NCI, 2004).
# The list shows only some results of the screen, not a fair sample: it gathers some chemical classes. Other doses and runs of a compound may be missing. T/C: endpoint of the treated group in % of that of the vehicle group. Schedules are NCI's codes, read here as Q, the interval in days (D) or hours (H), X, the number of doses.
# Tested on: MX-1 breast xenograft, intrarenal, nude mice, tumor weight
# Test: NCI In Vivo Anticancer Drug Screen. Data for tumor model Human Mammary Carcinoma MX-1 Xenograft (intrarenal inoculation) in NU/NU BALB/C (nude) mice
# Conditions: T/C endpoint: mean tumor weight change, schedule: Q04DX003 (ip), vehicle: saline, evaluated on day 11, higher T/C = larger tumour
# Protocol: The antitumor activity of compounds was measured in mice bearing transplantable tumors. Survival or tumor size were measured and the results are expressed as the measurement made in the treated group (T) divided by the measurement made in the vehicle treated control group (C). The tumor model used in this assay is Human Mammary Carcinoma MX-1 Xenograft (intrarenal inoculation) in NU/NU BALB/C (nude) mice
smiles,measurement,setting,value
CN(CCCl)CCCl,T/C,dose: 0.38 mg/kg/injection,12 % of control
same,T/C,dose: 0.75 mg/kg/injection,7 % of control
same,T/C,dose: 1.25 mg/kg/injection,1 % of control
